Data: patent US20260258149A1

Assays:
[1] = biological target: Bovine Submaxillary Mucin (BSM) (bovine); assay: ELISA, plate coated with BSM at 3 ug/mL, absorbance at 450 nm normalised to percent of dose response effect
[2] = biological target: Bovine Submaxillary Mucin (BSM) (bovine); assay: ELISA on BSM, OD against antibody concentration

B1: humanized anti-STn antibody clone V1 (antibody, V domains shown)
VH: QVQLQESGPGLVKPSQTLSLTCTVIGYSITSGYYWNWIRQPPGKGLEWIGSINYDGSNIYNPSLKSRVTISRDTSKNQFSLKLSSVTAADTAVYYCARGGDYWGQGTTVTVSS
VL: EIVLTQSPATLSLSPGERATLSCSASSSVSYMHWFQQKPGQAPRRWIYDTSKRATGVPARFSGSGSGTDYTLTISSLEPEDFAAYYCQQWSSDPPMLTFGGGTKLEIK
[1]
  binding: binds
[2]
  binding: binds

These are yes or no findings as the source states them, for the method shown. Binding can be weak; no strength is given.
